These are yes or no findings as the source states them, for the method shown. In cells and extracts the contact can be indirect. Some entries that bind do so weakly or less than the wild type.
Legend:
[1] = biological target: Flag-GSK3β (UniProt P49841); assay: co-IP; HEK293T cells overexpressing the Flag-tagged bait, treated with NaB for 6 h or with NaB in combination with LiCl; CHAPS lysis buffer; lysates incubated with anti-Flag M2 beads for 2-3 h; NRF2 detected by Western blot
[2] = biological target: Flag-β-TRCP1 (UniProt Q9Y297); assay: as above

The chains behind the UniProt entries cited, without tags or fusion partners.
UniProt P49841: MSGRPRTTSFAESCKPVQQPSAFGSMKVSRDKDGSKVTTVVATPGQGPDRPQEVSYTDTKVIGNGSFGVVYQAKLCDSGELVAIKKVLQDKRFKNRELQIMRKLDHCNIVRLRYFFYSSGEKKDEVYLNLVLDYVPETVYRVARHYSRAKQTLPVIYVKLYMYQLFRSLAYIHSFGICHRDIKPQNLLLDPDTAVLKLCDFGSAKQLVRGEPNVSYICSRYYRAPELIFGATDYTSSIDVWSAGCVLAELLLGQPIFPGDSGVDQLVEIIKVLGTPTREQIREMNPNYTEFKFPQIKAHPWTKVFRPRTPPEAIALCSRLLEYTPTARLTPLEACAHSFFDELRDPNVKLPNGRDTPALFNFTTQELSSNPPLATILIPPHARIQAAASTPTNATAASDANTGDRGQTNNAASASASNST
UniProt Q9Y297: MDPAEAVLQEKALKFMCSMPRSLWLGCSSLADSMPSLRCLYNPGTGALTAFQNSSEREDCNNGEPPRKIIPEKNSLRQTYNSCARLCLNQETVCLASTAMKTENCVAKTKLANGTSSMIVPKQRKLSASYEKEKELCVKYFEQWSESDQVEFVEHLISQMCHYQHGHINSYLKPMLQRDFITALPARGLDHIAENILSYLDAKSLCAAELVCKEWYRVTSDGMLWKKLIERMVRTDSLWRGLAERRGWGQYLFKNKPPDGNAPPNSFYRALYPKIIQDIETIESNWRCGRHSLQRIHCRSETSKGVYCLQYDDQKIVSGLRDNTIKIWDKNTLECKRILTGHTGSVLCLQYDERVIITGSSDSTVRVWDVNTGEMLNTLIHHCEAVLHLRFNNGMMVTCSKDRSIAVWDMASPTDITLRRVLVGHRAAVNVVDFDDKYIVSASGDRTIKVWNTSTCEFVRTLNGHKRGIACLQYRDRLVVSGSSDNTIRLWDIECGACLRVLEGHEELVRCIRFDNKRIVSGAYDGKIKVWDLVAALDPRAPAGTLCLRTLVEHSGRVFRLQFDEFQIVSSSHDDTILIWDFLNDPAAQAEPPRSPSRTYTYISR

binding [1]: binds
binding [2]: binds
B1: nuclear factor erythroid 2-related factor 2 (NRF2) (protein, UniProt Q16236 1-605)
chain: MMDLELPPPGLPSQQDMDLIDILWRQDIDLGVSREVFDFSQRRKEYELEKQKKLEKERQEQLQKEQEKAFFAQLQLDEETGEFLPIQPAQHIQSETSGSANYSQVAHIPKSDALYFDDCMQLLAQTFPFVDDNEVSSATFQSLVPDIPGHIESPVFIATNQAQSPETSVAQVAPVDLDGMQQDIEQVWEELLSIPELQCLNIENDKLVETTMVPSPEAKLTEVDNYHFYSSIPSMEKEVGNCSPHFLNAFEDSFSSILSTEDPNQLTVNSLNSDATVNTDFGDEFYSAFIAEPSISNSMPSPATLSHSLSELLNGPIDVSDLSLCKAFNQNHPESTAEFNDSDSGISLNTSPSVASPEHSVESSSYGDTLLGLSDSEVEELDSAPGSVKQNGPKTPVHSSGDMVQPLSPSQGQSTHVHDAQCENTPEKELPVSPGHRKTPFTKDKHSSRLEAHLTRDELRAKALHIPFPVEKIINLPVVDFNEMMSKEQFNEAQLALIRDIRRRGKNKVAAQNCRKRKLENIVELEQDLDHLKDEKEKLLKEKGENDKSLHLLKKQLSTLYLEVFSMLRDEDGKPYSPSEYSLQQTRDGNVFLVPKSKKPDVKKN

From PMC10130170
